# Measured values as given in PubChem BioAssay AID445 (National Center for Advancing Translational Sciences (NCATS), 2006).
# The other results are listed elsewhere or left out. These are further read-outs of the screen, such as a control signal, another cell line or another target. No call is given for them. The list favours compounds with an active or inconclusive main result. Potencies come from curve fits of mixed quality, noted in brackets.
# Assay: IkB Signaling
# Settings: ABC-DLBCL IkBa-CBG/CBR dual luciferase ratio (green luciferase fused to IkBa over red control in OCI-Ly3 lymphoma cells), 4 h
# Summary of the method: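 Curves were fitted separately to fusion (green), unfused (red) and ratio luminescence, then classed by r2, magnitude and activity. Cells: OCI-Ly3, 4 h compound plus doxycycline at 37C; 10 uM MG-132 defined full response.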
# [1] = measured here: control luc red channel unless noted
compound,measurement,setting,value
COC(=O)c1ccccc1NC(=O)CNc1cc(Cl)ccc1N1CCOCC1,AC50,[1],"7.94 µM [falling, partial curve]"
O=C(NC1CC1)c1c[nH]c2ccc(S(=O)(=O)Nc3cccc(C(F)(F)F)c3)cc2c1=O,AC50,[1],"12.6 µM [falling, partial curve]"
COc1cccc(CNC(=O)CCCN2C(=O)CCn3nc(-c4cccn4C)cc32)c1,AC50,[1],"39.8 µM [falling, single point]"
CCOC(=O)c1cccc(NC(=O)Cn2c(=O)nc(-c3ccccc3F)c3cc(Cl)ccc32)c1,AC50,[1],"7.94 µM [falling, partial curve]"
CCn1c(=O)c2cc(C(=O)N(CC(C)C)CC(C)C)sc2c2ccccc21,AC50,[1],"15.8 µM [falling, partial curve]"
CC(=O)c1ccc2c(c1)Nc1ccccc1S2,AC50,[1],"0.631 µM [rising, partial curve]"
CCCn1c(=O)c(C(=O)Nc2ccccc2C(=O)OCC)c(O)c2ccccc21,AC50,[1],"0.158 µM [falling, full curve, poor fit]"
CCOC(=O)c1ccc(NC(=O)CN2c3ccccc3S(=O)(=O)c3ccccc32)cc1,AC50,[1],"39.8 µM [falling, partial curve]"
Cc1cc(C)cc(Nc2cc(C)nc3nncn23)c1,AC50,[1],"25.1 µM [falling, single point]"
Cc1cccc(-c2nc3scc(CCNC(=O)c4ccc(Br)o4)n3n2)c1,AC50,[1],"39.8 µM [falling, single point]"
CCOC(=O)N1CCN(c2ncc3c(n2)CC(c2ccccc2O)CC3=O)CC1 (centres undefined),AC50,[1],"25.1 µM [falling, partial curve]"
COc1ccc(CCNC(=O)CCc2c(C)nc3cc(-c4ccccc4OC)nn3c2C)c(OC)c1,AC50,[1],"0.794 µM [falling, full curve]"
CCc1cccc(C)c1NC(=O)c1cc(S(=O)(=O)N2CCOCC2)cn1C,AC50,[1],"0.0316 µM [rising, full curve]"
CCOC(=O)c1ccccc1NC(=O)n1ncc2cc(Cl)ccc21,AC50,[1],"15.8 µM [falling, partial curve]"
Cc1noc(C)c1S(=O)(=O)Nc1ccc(C(=O)Nc2ccc(Br)cc2)cc1,AC50,[1],"15.8 µM [falling, partial curve]"
COc1cc(NC(=O)CCn2cnc3ccccc3c2=O)cc(OC)c1,AC50,[1],"0.631 µM [rising, full curve]"
CCOc1cccc(C(=O)Nc2ccc3oc(-c4cccnc4)nc3c2)c1,AC50,[1],"3.16 µM [falling, full curve]"
CCCCOc1ccc(CNC(=O)c2cc3n(n2)CCCN(Cc2ccc(C)cc2)C3=O)cc1,AC50,[1],"25.1 µM [falling, partial curve]"
CCCCSCCCNC(=O)c1cn(CC)c2ccc(S(=O)(=O)N3CCCCCC3)cc2c1=O,AC50,[1],"3.16 µM [falling, partial curve]"
COc1ccc(OCCn2c(C)nc3cc(C)c(C)cc32)cc1,AC50,[1],"25.1 µM [falling, single point]"
COc1ccc(-c2c(C)nn3c(N4CCN(c5ccccc5)CC4)cc(C)nc23)cc1OC,AC50,[1],"15.8 µM [falling, single point]"
COc1ccc(NC(=O)CC2C(=O)N(c3ccc(F)cc3)C(=O)N2Cc2ccc3c(c2)OCO3)cc1 (centres undefined),AC50,[1],"25.1 µM [falling, single point]"
COc1ccc(OC)c(-c2cc(C(=O)Nc3c(C)nn(Cc4ccccc4)c3C)no2)c1,AC50,[1],"15.8 µM [falling, partial curve]"
CCCn1c(=N)c(C(=O)NC2CCCC2)cc2c(=O)n3cccc(C)c3nc21,AC50,[1],"20 µM [falling, single point]"
CSc1ccc(CCNC(=O)c2cnn(-c3ccccc3)c2-n2cccc2)cc1,AC50,[1],"15.8 µM [falling, partial curve]"
CCN(CC)c1cc(C)c2cc(NC(=O)c3cccc(F)c3)ccc2n1,AC50,[1],"10 µM [falling, partial curve]"
Cc1cccc(NC(=O)c2cc(S(=O)(=O)N3CCc4ccccc43)ccc2F)c1C,AC50,[1],"6.31 µM [falling, partial curve]"
COc1ccc(N2CCN(C(=O)C3CCCN(S(=O)(=O)c4ccc5c(c4)CCCN5C(C)=O)C3)CC2)cc1 (centres undefined),AC50,[1],"39.8 µM [falling, partial curve, poor fit]"
Cc1ccc(N2C(=O)CSC23C(=O)N(CC(=O)NCCc2ccccc2)c2ccccc23)cc1C (centres undefined),AC50,[1],"20 µM [falling, single point]"
COc1ccc(CCNC(=O)c2cnc3ccc(C)cn3c2=O)cc1,AC50,[1],"5.01 µM [rising, partial curve]"
c1ccc(-c2csc(N3CCN(c4ccccn4)CC3)n2)cc1,AC50,measured here: IkB-luc green channel,"39.8 µM [falling, single point]"
same,AC50,measured here: control luc red channel,"15.8 µM [falling, partial curve]"
CC(C)CS(=O)(=O)c1oc(-c2ccc(F)cc2)nc1S(=O)(=O)c1ccccc1,AC50,[1],"5.01 µM [falling, full curve]"
COc1cccc(Cn2nnc(C(=O)Nc3cc(C)ccc3C)c2N)c1,AC50,[1],"12.6 µM [falling, single point]"
COc1ccc(OC)c(C(c2nnnn2C(C)(C)C)N2CCc3ccccc3C2)c1 (centres undefined),AC50,[1],"25.1 µM [falling, partial curve]"
CCOc1ccccc1CNC(=O)Cn1c(-c2ccccc2)cc(C(C)=O)c1C,AC50,[1],"39.8 µM [falling, single point]"
O=C(Cn1c(=O)n(Cc2ccccc2)c(=O)c2sc3ccccc3c21)NCc1ccccc1Cl,AC50,[1],"6.31 µM [rising, single point]"
O=C(NC1CC(=O)N(c2cccc(F)c2)C1)c1ccc(S(=O)(=O)N2CCCC2)cc1 (centres undefined),AC50,[1],"3.98 µM [falling, single point]"
Cc1ccc2nc(NC(=O)CSc3nccn3Cc3ccc(Cl)cc3)sc2c1,AC50,[1],"39.8 µM [falling, single point]"
Fc1ccc(Nc2nc(N3CCOCC3)c3ccccc3n2)cc1,AC50,[1],"20 µM [falling, partial curve]"
COc1ccc(C(=O)c2oc3ccccc3c2NC(=O)COc2ccccc2)cc1,AC50,[1],"39.8 µM [falling, single point]"
COc1ccc(CCNC(=O)c2sc3nc4n(c(=O)c3c2C)CCCC4)cc1OC,AC50,[1],"6.31 µM [falling, partial curve]"
Cc1ccc(C)c(-n2nnnc2Sc2nnnn2-c2ccccc2)c1,AC50,[1],"15.8 µM [falling, partial curve]"
CC1=CC(C)=Nc2ccc(C)cc2N1,AC50,[1],"12.6 µM [falling, partial curve]"
Clc1cccc(-c2nnc(-c3ccccc3)o2)c1,AC50,[1],"10 µM [falling, partial curve]"
CCOC(=O)c1cc(-c2ccccc2)n(-c2cccc(C(=O)Nc3cccc(F)c3)c2)c1C,AC50,[1],"39.8 µM [falling, single point]"
C/C(N)=C(/C#N)C(=O)CSc1nnc(SCc2ccc(Cl)cc2)s1,AC50,[1],"12.6 µM [falling, partial curve]"
CCn1c(=O)c2cc(C(=O)Nc3cc(F)ccc3F)sc2c2ccccc21,AC50,[1],"0.02 µM [falling, full curve]"
Cn1c(=O)c(=O)n(C)c2cc(S(=O)(=O)Nc3ccc4c(c3)OCCO4)ccc21,AC50,[1],"5.01 µM [falling, full curve, poor fit]"
Cc1ccc(CN2CCC(CNc3ncnc4onc(-c5ccc(F)cc5)c34)CC2)cc1,AC50,[1],"25.1 µM [falling, single point]"
COc1ccc(-c2n[nH]c(=S)n2C2CCCCC2)cc1,AC50,[1],"10 µM [falling, partial curve]"
CCCCn1c(=NC(=O)c2ccco2)c(C(=O)OCC)cc2c(=O)n3ccccc3nc21,AC50,[1],"12.6 µM [rising, partial curve] [measured here: IkB-luc green channel]"
Cc1c(C(=O)c2no[n+]([O-])c2C(=O)c2cnn(C)c2C)cnn1C,AC50,[1],"7.94 µM [falling, partial curve]"
COc1cccc(-c2nc(SCc3cc(=O)c4ccc(C)c(C)c4[nH]3)n[nH]2)c1,AC50,[1],"31.6 µM [falling, partial curve, poor fit]"
Clc1ccc(-c2nnc(-c3ccccc3)o2)c(Cl)c1,AC50,[1],"15.8 µM [falling, partial curve]"
COc1ccc(NC(=O)c2csc3c2CCCCC3)cc1,AC50,[1],"3.16 µM [rising, partial curve]"
Cc1ccc(Cc2c(C)nc3nc(SCC(=O)NC(C)c4ccccc4)nn3c2C)cc1 (centres undefined),AC50,[1],"6.31 µM [falling, partial curve]"
COc1ccc(S(=O)(=O)c2nnn(-c3cc(Cl)c(OC)cc3OC)c2C)cc1,AC50,[1],"25.1 µM [falling, single point]"
CCOCCCn1c(SCC(=O)Nc2ccc(C(C)C)cc2)nc2c(sc3ccccc32)c1=O,AC50,[1],"25.1 µM [rising, partial curve]"
Cn1c(=O)c2c(-c3ccccc3)n3c4ccccc4nc(-c4ccccc4)c3c2n(C)c1=O,AC50,[1],"15.8 µM [falling, partial curve]"
COc1ccc(C(=O)NCC(c2cccnc2)N2CCc3ccccc3C2)cc1OC (centres undefined),AC50,[1],"31.6 µM [falling, single point]"
Cc1ccc(Cl)cc1NC(=O)C(C)n1nnc2sc3c(c2c1=O)CCCC3 (centres undefined),AC50,[1],"12.6 µM [falling, partial curve]"
Cc1cccc(N2CCN(S(=O)(=O)c3ccc4c(c3)CCCN4C(=O)C3CCC3)CC2C)c1 (centres undefined),AC50,[1],"20 µM [falling, partial curve]"
COc1ccc(Cn2c(=O)[nH]c3cc(C(=O)N4CCN(c5cccc(Cl)c5)CC4)ccc3c2=O)cc1,AC50,[1],"0.316 µM [falling, full curve]"

# Reprinted from the results shown for reference:
compound,measurement,setting,value
CCCCSCCCNC(=O)c1cn(CC)c2ccc(S(=O)(=O)N3CCCCCC3)cc2c1=O,AC50,[1],"3.16 µM [falling, partial curve]"
COc1ccc(OCCn2c(C)nc3cc(C)c(C)cc32)cc1,AC50,[1],"25.1 µM [falling, single point]"
COc1ccc(-c2c(C)nn3c(N4CCN(c5ccccc5)CC4)cc(C)nc23)cc1OC,AC50,[1],"15.8 µM [falling, single point]"
COc1ccc(NC(=O)CC2C(=O)N(c3ccc(F)cc3)C(=O)N2Cc2ccc3c(c2)OCO3)cc1 (centres undefined),AC50,[1],"25.1 µM [falling, single point]"
COc1ccc(OC)c(-c2cc(C(=O)Nc3c(C)nn(Cc4ccccc4)c3C)no2)c1,AC50,[1],"15.8 µM [falling, partial curve]"
CCCn1c(=N)c(C(=O)NC2CCCC2)cc2c(=O)n3cccc(C)c3nc21,AC50,[1],"20 µM [falling, single point]"
CSc1ccc(CCNC(=O)c2cnn(-c3ccccc3)c2-n2cccc2)cc1,AC50,[1],"15.8 µM [falling, partial curve]"
CCN(CC)c1cc(C)c2cc(NC(=O)c3cccc(F)c3)ccc2n1,AC50,[1],"10 µM [falling, partial curve]"
Cc1cccc(NC(=O)c2cc(S(=O)(=O)N3CCc4ccccc43)ccc2F)c1C,AC50,[1],"6.31 µM [falling, partial curve]"
COc1ccc(N2CCN(C(=O)C3CCCN(S(=O)(=O)c4ccc5c(c4)CCCN5C(C)=O)C3)CC2)cc1 (centres undefined),AC50,[1],"39.8 µM [falling, partial curve, poor fit]"
Cc1ccc(N2C(=O)CSC23C(=O)N(CC(=O)NCCc2ccccc2)c2ccccc23)cc1C (centres undefined),AC50,[1],"20 µM [falling, single point]"
COc1ccc(CCNC(=O)c2cnc3ccc(C)cn3c2=O)cc1,AC50,[1],"5.01 µM [rising, partial curve]"
c1ccc(-c2csc(N3CCN(c4ccccn4)CC3)n2)cc1,AC50,measured here: IkB-luc green channel,"39.8 µM [falling, single point]"
same,AC50,measured here: control luc red channel,"15.8 µM [falling, partial curve]"
CC(C)CS(=O)(=O)c1oc(-c2ccc(F)cc2)nc1S(=O)(=O)c1ccccc1,AC50,[1],"5.01 µM [falling, full curve]"
COc1cccc(Cn2nnc(C(=O)Nc3cc(C)ccc3C)c2N)c1,AC50,[1],"12.6 µM [falling, single point]"
